PubChem BioAssay AID1053208 – Peter MacCallum Cancer Centre – 2014

Aim: 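Synthetic lethal interactions between gene loss and doxorubicin in osteosarcoma cells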 (primary screen)
System: mouse osteosarcoma cells, early-passage culture from an engineered mouse model of fibroblastic bone tumour
Knock-down reagent: siRNA pool against mouse genes, 40 nM
Time to read-out: about 120 h (48 h before drug, then 72 h with drug)
Treatment: doxorubicin 100 nM for 72 h, roughly 30-40% inhibitory dose
Measured: 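Viability read as ATP luminescence after 72 h of 100 nM doxorubicin or none, duplicate wells averaged, scaled to non-targeting siRNA, then expressed as robust z-scores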
Scale: viability z-score with doxorubicin and doxorubicin viability vs non-targeting: higher = more viable cells under doxorubicin; viability z-score without drug: higher = more viable cells with knock-down alone; z-score of drug to no-drug ratio: higher = less drug sensitisation by knock-down
Call rule: 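Called active if knock-down leaves viability unchanged without drug (z within -2 to 2) but lowers it with doxorubicin (z at or under -2)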
In all, the deposit lists about 17,000 reagents; this is an unselected part. Over the whole deposit, 788 (4.7%) are marked active. 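Calls rest on z-score classes alone; an extra cut-off of viability at most 70% of control was not applied to them.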 The numbers tell different reagents against one gene apart. No sequences are given here.

no.	gene	reagent no.	combined z-score class	viability z-score with doxorubicin	viability z-score without drug	z-score of drug to no-drug ratio	doxorubicin viability vs non-targeting	activity call
1	Arpp21 (cyclic AMP-regulated phosphoprotein, 21)	1	no change with or without drug	-0.67	0.84	-1.12	0.88	inactive
2	Arpp21 (cyclic AMP-regulated phosphoprotein, 21)	2	no change with or without drug	1.57	1.18	0.9	1.08	inactive
3	Nme4 (NME/NM23 nucleoside diphosphate kinase 4)	1	no change with or without drug	0.67	-0.51	1.24	1	inactive
4	Sec24a (SEC24 homolog A, COPII coat complex component)	1	no change with or without drug	-0.34	0.17	-0.34	0.91	inactive
5	Ppp1r3a (protein phosphatase 1, regulatory subunit 3A)	1	high cell count with doxorubicin only	2.25	0.34	2.25	1.14	inactive
6	Zfp503 (zinc finger protein 503)	1	no change with or without drug	-0.67	-0.84	0	0.88	inactive
7	Smpd2 (sphingomyelin phosphodiesterase 2, neutral)	1	no change with or without drug	1.35	0.34	1.24	1.06	inactive
8	Tor1b (torsin family 1, member B)	1	no change with or without drug	0	-0.84	0.67	0.94	inactive
9	Ago1 (argonaute RISC catalytic subunit 1)	1	no change with or without drug	-1.91	-0.17	-1.8	0.77	inactive
10	Or2ag2 (olfactory receptor family 2 subfamily AG member 2)	1	no change with or without drug	0.56	-0.17	0.79	0.99	inactive
11	Acad12 (acyl-Coenzyme A dehydrogenase family, member 12)	1	no change with or without drug	-0.45	-0.17	-0.22	0.9	inactive
12	Pdpr (pyruvate dehydrogenase phosphatase regulatory subunit)	1	no change with or without drug	-1.69	0.17	-1.8	0.79	inactive
13	Phb2 (prohibitin 2)	1	no change with or without drug	-1.57	-1.85	-0.34	0.8	inactive
14	Cxcl16 (C-X-C motif chemokine ligand 16)	1	no change with or without drug	0.67	-0.51	1.24	1	inactive
15	Itgb2l (integrin beta 2-like)	1	no change with or without drug	-1.35	-0.84	-0.79	0.82	inactive
16	Or10p22 (olfactory receptor family 10 subfamily P member 22)	1	high cell count without drug only	0	2.36	-1.35	0.94	inactive
17	Vrk3 (vaccinia related kinase 3)	1	no change with or without drug	0.45	1.52	-0.45	0.98	inactive
18	Pabir3 (PABIR family member 3)	1	no change with or without drug	-0.22	1.85	-1.24	0.92	inactive
19	Hand2 (heart and neural crest derivatives expressed 2)	1	no change with or without drug	1.24	-0.84	2.14	1.05	inactive
20	B3gnt2	1	no change with or without drug	0.34	1.52	-0.56	0.97	inactive
21	Sema3b	1	no change with or without drug	0.11	0.84	-0.34	0.95	inactive
22	Or51e2 (olfactory receptor family 51 subfamily E member 2)	1	no change with or without drug	-0.56	-0.51	-0.11	0.89	inactive
23	Vmn1r46 (vomeronasal 1 receptor 46)	1	no change with or without drug	-0.9	0.17	-0.9	0.86	inactive
24	Lhx9 (LIM homeobox protein 9)	1	no change with or without drug	-0.45	0.51	-0.67	0.9	inactive
25	Ifitm2 (interferon induced transmembrane protein 2)	1	no change with or without drug	-1.46	-0.17	-1.35	0.81	inactive
26	Pla2g3 (phospholipase A2, group III)	1	no change with or without drug	0.45	1.35	-0.34	0.98	inactive
27	Il2rb (interleukin 2 receptor, beta chain)	1	no change with or without drug	-0.45	0.17	-0.45	0.9	inactive
28	Thbs2 (thrombospondin 2)	1	no change with or without drug	0	1.01	-0.56	0.94	inactive
29	Ano7 (anoctamin 7)	1	no change with or without drug	0.67	0.84	0.22	1	inactive
30	Nit1 (nitrilase 1)	1	no change with or without drug	-0.22	0.51	-0.45	0.92	inactive
31	Zfp654 (zinc finger protein 654)	1	high cell count with doxorubicin only	2.47	0.51	2.25	1.16	inactive
32	Tead3 (TEA domain family member 3)	1	no change with or without drug	0.45	0.17	0.45	0.98	inactive
33	Sec61a2 (SEC61 translocon subunit alpha 2)	1	no change with or without drug	0	0.17	0	0.94	inactive
34	Olfr242 (olfactory receptor 242)	1	no change with or without drug	-0.11	-0.17	0.11	0.93	inactive
35	Wdr5 (WD repeat domain 5)	1	no change with or without drug	0.34	-0.84	1.12	0.97	inactive
36	Efs (embryonal Fyn-associated substrate)	1	no change with or without drug	0.67	0.17	0.67	1	inactive
37	Psg16 (pregnancy specific beta-1-glycoprotein 16)	1	no change with or without drug	0.67	0.51	0.45	1	inactive
38	Rab40b (Rab40B, member RAS oncogene family)	1	high cell count without drug only	1.01	2.87	-0.67	1.03	inactive
39	Rab25 (RAB25, member RAS oncogene family)	1	no change with or without drug	-0.11	-0.17	0.11	0.93	inactive
40	Phf2 (PHD finger protein 2)	1	no change with or without drug	0.67	0.51	0.45	1	inactive
41	Slc27a5	1	no change with or without drug	-1.12	1.18	-1.8	0.84	inactive
42	Grtp1 (GH regulated TBC protein 1)	1	no change with or without drug	-0.22	-1.18	0.79	0.92	inactive
43	Mansc1 (MANSC domain containing 1)	1	no change with or without drug	1.35	1.01	0.79	1.06	inactive
44	C1qtnf12 (C1q and tumor necrosis factor related 12)	1	no change with or without drug	0.22	0.84	-0.22	0.96	inactive
45	Adgrg2 (adhesion G protein-coupled receptor G2)	1	no change with or without drug	-1.01	-0.51	-0.67	0.85	inactive
46	Or5w20 (olfactory receptor family 5 subfamily W member 20)	1	low cell count with and without drug	-3.37	-2.02	-2.36	0.64	inactive
47	Pkia (protein kinase inhibitor, alpha)	1	high cell count without drug only	0.45	2.36	-0.9	0.98	inactive
48	Rnft2 (ring finger protein, transmembrane 2)	1	no change with or without drug	-1.46	-0.17	-1.35	0.81	inactive
49	Slc17a6	1	no change with or without drug	-0.22	-0.17	0	0.92	inactive
50	4833432B22RIK	1	no change with or without drug	0.45	-1.18	1.46	0.98	inactive
51	Bex1 (brain expressed X-linked 1)	1	low cell count with doxorubicin only	-2.25	-0.84	-1.8	0.74	active
52	Zfp219 (zinc finger protein 219)	1	low cell count without drug only	-1.35	-2.53	0.45	0.82	inactive
53	Ptcra (pre T cell antigen receptor alpha)	1	high cell count with and without drug	2.7	2.02	1.35	1.18	inactive
54	Ca12 (carbonic anhydrase 12)	1	no change with or without drug	1.12	-0.84	2.02	1.04	inactive
55	Ang3 (angiogenin, ribonuclease A family, member 3)	1	no change with or without drug	-0.67	-1.52	0.45	0.88	inactive
56	Ngly1 (N-glycanase 1)	1	no change with or without drug	0.79	1.52	-0.11	1.01	inactive
57	Mrps5 (mitochondrial ribosomal protein S5)	1	no change with or without drug	-1.12	-1.18	-0.34	0.84	inactive
58	Ecd (ecdysoneless cell cycle regulator)	1	no change with or without drug	-1.57	-1.85	-0.34	0.8	inactive
59	Rgs5 (regulator of G-protein signaling 5)	1	no change with or without drug	-0.9	-0.51	-0.56	0.86	inactive
60	Or5d35 (olfactory receptor family 5 subfamily D member 35)	1	no change with or without drug	0.34	-0.51	0.79	0.97	inactive
61	Mecom (MDS1 and EVI1 complex locus)	1	no change with or without drug	-0.45	0.51	-0.67	0.9	inactive
62	Mecom (MDS1 and EVI1 complex locus)	2	no change with or without drug	-0.9	-0.17	-0.79	0.86	inactive
63	Or2y6 (olfactory receptor family 2 subfamily Y member 6)	1	no change with or without drug	1.12	1.85	0	1.04	inactive
